The other results are listed elsewhere or left out. Most entries show no effect beyond the scatter of the controls.
compound: CN[C@@H]1C[C@H]2O[C@@](C)([C@@H]1OC)n1c3ccccc3c3c4c(c5c6ccccc6n2c5c31)C(=O)NC4 [staurosporine]; assay: log2 fold change of tryptic peptide abundance, ligand vs vehicle (limited proteolysis) (log2 ratio); higher = more trypsin-susceptible (destabilized); conditions: ligand concentration: 20 uM; sample: K562 cleared lysate; digestion: 4 min, 22 C (HT-PELSA RT4min, Orbitrap Astral)

Amino acid sequences for entries named in this document (tags omitted). A change or cut given only in a name is not applied to a line headed by its entry.
UniProt O94763, whole entry: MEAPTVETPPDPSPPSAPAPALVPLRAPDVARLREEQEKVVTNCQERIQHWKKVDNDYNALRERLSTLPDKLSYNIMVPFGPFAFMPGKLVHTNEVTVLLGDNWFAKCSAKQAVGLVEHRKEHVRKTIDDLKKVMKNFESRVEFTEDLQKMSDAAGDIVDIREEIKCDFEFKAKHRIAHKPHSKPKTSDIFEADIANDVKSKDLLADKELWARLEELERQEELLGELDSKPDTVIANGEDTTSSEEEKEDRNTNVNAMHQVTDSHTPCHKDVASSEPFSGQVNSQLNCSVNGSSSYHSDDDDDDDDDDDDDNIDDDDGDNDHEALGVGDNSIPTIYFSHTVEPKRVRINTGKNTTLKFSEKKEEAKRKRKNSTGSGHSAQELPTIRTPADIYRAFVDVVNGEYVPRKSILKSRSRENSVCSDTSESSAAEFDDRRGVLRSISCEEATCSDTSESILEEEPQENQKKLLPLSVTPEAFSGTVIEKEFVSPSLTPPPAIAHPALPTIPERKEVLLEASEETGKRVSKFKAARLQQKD
UniProt O95409: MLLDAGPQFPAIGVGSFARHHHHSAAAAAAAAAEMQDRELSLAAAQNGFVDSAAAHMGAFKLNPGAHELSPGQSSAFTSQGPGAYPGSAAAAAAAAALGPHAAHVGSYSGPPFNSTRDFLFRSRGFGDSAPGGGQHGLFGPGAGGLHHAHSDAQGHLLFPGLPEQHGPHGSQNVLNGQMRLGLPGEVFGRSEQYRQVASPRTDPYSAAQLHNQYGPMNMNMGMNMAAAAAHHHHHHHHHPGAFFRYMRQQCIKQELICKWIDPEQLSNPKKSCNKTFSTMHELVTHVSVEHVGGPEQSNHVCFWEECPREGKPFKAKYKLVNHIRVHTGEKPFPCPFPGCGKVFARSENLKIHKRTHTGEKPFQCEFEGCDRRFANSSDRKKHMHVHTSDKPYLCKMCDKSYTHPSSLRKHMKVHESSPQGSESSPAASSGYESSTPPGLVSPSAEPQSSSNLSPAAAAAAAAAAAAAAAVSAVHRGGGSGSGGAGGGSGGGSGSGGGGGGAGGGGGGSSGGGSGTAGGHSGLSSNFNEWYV
UniProt O94967: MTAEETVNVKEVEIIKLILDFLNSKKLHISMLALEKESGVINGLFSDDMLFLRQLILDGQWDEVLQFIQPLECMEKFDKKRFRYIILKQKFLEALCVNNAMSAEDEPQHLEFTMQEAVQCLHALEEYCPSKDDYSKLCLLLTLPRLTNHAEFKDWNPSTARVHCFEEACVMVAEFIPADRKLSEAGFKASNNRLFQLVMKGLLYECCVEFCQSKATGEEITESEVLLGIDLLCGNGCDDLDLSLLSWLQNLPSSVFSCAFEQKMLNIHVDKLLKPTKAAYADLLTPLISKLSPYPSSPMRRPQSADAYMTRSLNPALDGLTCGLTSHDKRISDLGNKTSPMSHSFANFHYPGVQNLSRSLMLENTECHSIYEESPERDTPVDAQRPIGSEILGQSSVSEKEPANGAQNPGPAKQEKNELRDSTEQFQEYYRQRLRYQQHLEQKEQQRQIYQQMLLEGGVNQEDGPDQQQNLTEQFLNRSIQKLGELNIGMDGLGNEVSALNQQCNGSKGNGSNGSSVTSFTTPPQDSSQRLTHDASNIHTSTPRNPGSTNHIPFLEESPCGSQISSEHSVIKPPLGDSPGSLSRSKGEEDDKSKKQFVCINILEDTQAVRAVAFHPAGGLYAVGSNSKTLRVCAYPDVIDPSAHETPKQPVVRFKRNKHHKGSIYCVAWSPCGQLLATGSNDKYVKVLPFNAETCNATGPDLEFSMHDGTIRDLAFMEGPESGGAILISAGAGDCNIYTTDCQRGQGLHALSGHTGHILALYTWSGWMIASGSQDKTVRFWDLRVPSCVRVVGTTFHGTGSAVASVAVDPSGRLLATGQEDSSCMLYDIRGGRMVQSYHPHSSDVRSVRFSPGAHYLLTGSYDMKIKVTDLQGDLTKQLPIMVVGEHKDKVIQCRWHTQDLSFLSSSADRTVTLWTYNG
UniProt O95793: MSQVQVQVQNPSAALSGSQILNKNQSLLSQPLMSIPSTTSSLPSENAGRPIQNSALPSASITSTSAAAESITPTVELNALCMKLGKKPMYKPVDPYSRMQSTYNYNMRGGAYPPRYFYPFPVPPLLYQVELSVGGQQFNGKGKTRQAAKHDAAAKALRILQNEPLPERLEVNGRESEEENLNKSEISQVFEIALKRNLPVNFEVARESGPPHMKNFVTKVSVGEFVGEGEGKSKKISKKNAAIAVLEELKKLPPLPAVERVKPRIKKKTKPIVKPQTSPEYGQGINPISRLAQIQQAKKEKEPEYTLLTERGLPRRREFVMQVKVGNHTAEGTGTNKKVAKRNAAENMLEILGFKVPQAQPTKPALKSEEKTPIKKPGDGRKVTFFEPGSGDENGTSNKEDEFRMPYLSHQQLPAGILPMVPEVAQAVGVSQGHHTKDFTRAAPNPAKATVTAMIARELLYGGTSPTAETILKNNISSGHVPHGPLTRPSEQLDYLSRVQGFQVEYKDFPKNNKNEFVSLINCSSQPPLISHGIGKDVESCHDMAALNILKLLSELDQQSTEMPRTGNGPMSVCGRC
UniProt O95149, whole entry: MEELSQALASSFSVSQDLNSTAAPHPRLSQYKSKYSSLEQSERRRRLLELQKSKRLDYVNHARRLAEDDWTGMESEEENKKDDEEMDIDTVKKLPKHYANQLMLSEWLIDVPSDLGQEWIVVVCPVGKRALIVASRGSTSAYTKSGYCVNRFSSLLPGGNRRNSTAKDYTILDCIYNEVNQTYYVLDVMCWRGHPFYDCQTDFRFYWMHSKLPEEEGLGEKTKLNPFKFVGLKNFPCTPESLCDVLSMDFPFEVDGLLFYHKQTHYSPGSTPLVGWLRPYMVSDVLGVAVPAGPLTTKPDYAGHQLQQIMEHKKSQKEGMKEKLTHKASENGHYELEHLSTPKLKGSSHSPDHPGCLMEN
UniProt O95983: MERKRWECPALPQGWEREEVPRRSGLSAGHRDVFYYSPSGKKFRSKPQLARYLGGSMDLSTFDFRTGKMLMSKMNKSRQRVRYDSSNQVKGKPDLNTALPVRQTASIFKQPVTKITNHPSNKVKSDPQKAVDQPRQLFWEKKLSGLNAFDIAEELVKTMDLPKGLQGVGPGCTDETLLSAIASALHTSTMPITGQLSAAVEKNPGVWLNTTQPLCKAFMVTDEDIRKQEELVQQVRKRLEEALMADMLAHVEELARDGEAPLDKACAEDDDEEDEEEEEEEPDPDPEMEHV
UniProt O95487: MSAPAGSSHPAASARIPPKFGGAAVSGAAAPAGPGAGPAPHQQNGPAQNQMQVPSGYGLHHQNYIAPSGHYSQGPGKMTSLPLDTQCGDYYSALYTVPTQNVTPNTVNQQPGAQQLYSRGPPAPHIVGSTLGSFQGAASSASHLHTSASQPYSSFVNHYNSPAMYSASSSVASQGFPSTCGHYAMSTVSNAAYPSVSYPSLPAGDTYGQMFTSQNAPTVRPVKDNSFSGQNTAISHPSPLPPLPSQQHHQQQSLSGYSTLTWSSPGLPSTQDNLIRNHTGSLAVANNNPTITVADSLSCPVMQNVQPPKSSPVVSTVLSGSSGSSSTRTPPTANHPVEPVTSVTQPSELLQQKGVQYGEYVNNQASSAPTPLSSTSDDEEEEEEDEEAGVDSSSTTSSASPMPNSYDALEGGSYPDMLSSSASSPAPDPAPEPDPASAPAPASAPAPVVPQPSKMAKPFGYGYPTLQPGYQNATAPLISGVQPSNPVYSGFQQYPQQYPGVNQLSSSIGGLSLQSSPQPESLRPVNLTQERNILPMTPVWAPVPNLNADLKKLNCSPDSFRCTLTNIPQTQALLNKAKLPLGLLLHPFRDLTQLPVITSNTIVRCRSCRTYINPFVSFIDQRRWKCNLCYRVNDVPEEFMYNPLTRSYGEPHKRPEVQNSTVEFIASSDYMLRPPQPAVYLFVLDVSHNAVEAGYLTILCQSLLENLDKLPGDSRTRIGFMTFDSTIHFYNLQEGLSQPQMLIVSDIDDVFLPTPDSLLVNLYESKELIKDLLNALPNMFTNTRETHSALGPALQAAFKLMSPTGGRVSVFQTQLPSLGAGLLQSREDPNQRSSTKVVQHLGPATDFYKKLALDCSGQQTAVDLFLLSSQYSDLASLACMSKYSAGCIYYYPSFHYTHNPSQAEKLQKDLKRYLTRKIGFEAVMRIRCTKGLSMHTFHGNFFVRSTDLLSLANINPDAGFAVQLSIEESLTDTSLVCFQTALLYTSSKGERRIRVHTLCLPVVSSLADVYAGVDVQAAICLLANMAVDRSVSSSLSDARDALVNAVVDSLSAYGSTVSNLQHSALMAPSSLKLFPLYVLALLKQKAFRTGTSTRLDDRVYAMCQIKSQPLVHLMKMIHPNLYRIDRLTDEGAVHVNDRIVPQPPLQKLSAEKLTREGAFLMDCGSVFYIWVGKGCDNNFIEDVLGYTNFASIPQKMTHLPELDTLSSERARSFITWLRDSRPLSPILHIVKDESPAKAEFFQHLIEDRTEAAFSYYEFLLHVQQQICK

Target | log2 fold change
UniProt O94763 (peptide sequence: EVLLEASEETGKR, peptide start residue: 510) | -0.138
UniProt O95409 (peptide sequence: LGLPGEVFGR, peptide start residue: 181) | 0.167
WDR47 (peptide sequence: LTHDASNIHTSTPR, peptide start residue: 531) (UniProt O94967) | -0.262
STAU1 (peptide sequence: MQSTYNYNMR, peptide start residue: 99) (UniProt O95793) | 0.357
SNUPN (peptide sequence: SKYSSLEQSER, peptide start residue: 33) (UniProt O95149) | 0.168
MBD3 (peptide sequence: YLGGSMDLSTFDFR, peptide start residue: 52) (UniProt O95983) | -0.465
SEC24B (peptide sequence: LTDEGAVHVNDR, peptide start residue: 1127) (UniProt O95487) | 0.321

Reference: the supplement of paper PMC12819154, “High-throughput peptide-centric local stability assay extends protein–ligand identification to membrane proteins, tissues and bacteria” (Nature Structural & Molecular Biology, 2025)
